Where a SMILES comes first, the peptide text is derived from it.

The series concerns LazBCDEF. The series can be described thus: Enzymatic maturation with Laz enzymes, LC/MS analysis. Format: biochemical. As to conditions: semiquantitative LC/MS of the in vitro translated precursor treated with Laz enzymes. Set-up: key: +++/++/+/– scale; +++/++/+/– scale; +++/++/+/– scale; +++/++/+/– scale.

In the case of `C=C1NC(=O)[C@H](CCCCN)NC(=O)[C@H]([C@@H](C)CC)NC(=O)[C@H](CCCC)NC(=O)[C@H](C(C)C)NC(=O)[C@H](CCCNC(=N)N)NC(=O)CNC(=O)[C@H]([C@@H](C)CC)NC(=O)[C@H](Cc2c[nH]c3ccccc23)NC(=O)c2ccc(-c3nc(C(=O)OC)cs3)nc2-c2csc(n2)C(=C)NC(=O)c2coc1n2` [TL19] (HELM PEPTIDE1{W.I.G.R.V.[Nle].I.K.[C=C(N[*:1])c1nc(C(=O)[*:2])co1]}|CHEM1{[C=C(N[*:2])c1nc(-c2nc(-c3nc(C(=O)OC)cs3)ccc2C(=O)[*:1])cs1]}$PEPTIDE1,CHEM1,1:R1-1:R1|PEPTIDE1,CHEM1,9:R2-1:R2$$$V2.0; bridges inferred), the maturation experimental entry is on record as “+++”.
Take `C=C1NC(=O)[C@H](Cc2c[nH]cn2)NC(=O)[C@H]([C@@H](C)CC)NC(=O)[C@H](C(C)C)NC(=O)[C@H](C(C)C)NC(=O)[C@H](CC(N)=O)NC(=O)[C@H](C(C)C)NC(=O)[C@H](CCCNC(=N)N)NC(=O)[C@H](CO)NC(=O)[C@H](CC(C)C)NC(=O)[C@H](CCC(=O)O)NC(=O)[C@H](CC(C)C)NC(=O)[C@H](CO)NC(=O)[C@H](Cc2c[nH]c3ccccc23)NC(=O)c2ccc(-c3nc(C(=O)OC)cs3)nc2-c2csc1n2` [TL20] (HELM PEPTIDE1{W.S.L.E.L.S.R.V.N.V.V.I.H}|CHEM1{[C=C(N[*:2])c1nc(-c2nc(-c3nc(C(=O)OC)cs3)ccc2C(=O)[*:1])cs1]}$PEPTIDE1,CHEM1,1:R1-1:R1|PEPTIDE1,CHEM1,13:R2-1:R2$$$V2.0; bridges inferred): the maturation experimental result is listed as “+++”.

Source of the values: article PMC10683472, “Deep Learning-Driven Library Design for the De Novo Discovery of Bioactive Thiopeptides” (ACS Central Science, 2023).
